# Test results: the supplement of paper PMC7666118
# The chains behind the UniProt entries cited, without tags or fusion partners. Where a name states a change or a piece, a line headed by the entry shows the natural chain unless it says otherwise.
# UniProt P98172: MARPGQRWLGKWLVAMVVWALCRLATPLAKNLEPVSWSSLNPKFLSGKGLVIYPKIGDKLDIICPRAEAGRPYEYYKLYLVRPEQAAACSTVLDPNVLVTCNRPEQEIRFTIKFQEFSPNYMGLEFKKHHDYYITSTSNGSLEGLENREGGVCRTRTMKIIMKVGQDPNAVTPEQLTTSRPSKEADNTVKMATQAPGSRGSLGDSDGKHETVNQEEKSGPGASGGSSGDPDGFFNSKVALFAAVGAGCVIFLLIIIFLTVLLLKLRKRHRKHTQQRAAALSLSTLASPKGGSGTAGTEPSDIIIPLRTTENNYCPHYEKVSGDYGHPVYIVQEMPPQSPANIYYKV
# UniProt Q7L5Y1: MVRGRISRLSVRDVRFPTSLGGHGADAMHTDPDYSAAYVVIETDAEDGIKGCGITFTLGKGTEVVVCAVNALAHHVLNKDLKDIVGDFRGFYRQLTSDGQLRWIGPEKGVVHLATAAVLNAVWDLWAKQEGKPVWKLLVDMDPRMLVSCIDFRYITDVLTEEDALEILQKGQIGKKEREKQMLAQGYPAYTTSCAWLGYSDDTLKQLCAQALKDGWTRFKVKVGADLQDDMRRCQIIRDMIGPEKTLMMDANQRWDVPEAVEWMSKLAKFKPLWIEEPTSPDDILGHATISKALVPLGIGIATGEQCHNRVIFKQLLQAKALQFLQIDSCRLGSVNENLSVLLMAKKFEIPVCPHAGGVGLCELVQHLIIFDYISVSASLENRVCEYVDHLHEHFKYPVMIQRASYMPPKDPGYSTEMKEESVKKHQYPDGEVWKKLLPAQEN
# UniProt Q7L775: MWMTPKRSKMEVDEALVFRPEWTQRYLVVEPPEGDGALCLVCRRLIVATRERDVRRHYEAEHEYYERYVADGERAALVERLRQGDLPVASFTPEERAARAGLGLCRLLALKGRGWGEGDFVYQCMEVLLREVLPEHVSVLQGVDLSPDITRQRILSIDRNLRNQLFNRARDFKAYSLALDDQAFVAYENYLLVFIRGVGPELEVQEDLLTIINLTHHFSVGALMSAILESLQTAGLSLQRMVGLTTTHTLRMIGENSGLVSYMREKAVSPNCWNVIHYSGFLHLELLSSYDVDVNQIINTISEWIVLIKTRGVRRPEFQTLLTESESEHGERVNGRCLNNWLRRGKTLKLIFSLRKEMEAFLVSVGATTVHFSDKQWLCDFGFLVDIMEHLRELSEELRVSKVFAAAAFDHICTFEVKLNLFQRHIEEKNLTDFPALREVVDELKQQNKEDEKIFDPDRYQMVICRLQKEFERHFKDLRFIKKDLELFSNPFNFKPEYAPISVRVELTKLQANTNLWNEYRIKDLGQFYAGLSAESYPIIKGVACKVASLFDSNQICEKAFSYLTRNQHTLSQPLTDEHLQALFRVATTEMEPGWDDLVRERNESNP
# UniProt Q96KP1: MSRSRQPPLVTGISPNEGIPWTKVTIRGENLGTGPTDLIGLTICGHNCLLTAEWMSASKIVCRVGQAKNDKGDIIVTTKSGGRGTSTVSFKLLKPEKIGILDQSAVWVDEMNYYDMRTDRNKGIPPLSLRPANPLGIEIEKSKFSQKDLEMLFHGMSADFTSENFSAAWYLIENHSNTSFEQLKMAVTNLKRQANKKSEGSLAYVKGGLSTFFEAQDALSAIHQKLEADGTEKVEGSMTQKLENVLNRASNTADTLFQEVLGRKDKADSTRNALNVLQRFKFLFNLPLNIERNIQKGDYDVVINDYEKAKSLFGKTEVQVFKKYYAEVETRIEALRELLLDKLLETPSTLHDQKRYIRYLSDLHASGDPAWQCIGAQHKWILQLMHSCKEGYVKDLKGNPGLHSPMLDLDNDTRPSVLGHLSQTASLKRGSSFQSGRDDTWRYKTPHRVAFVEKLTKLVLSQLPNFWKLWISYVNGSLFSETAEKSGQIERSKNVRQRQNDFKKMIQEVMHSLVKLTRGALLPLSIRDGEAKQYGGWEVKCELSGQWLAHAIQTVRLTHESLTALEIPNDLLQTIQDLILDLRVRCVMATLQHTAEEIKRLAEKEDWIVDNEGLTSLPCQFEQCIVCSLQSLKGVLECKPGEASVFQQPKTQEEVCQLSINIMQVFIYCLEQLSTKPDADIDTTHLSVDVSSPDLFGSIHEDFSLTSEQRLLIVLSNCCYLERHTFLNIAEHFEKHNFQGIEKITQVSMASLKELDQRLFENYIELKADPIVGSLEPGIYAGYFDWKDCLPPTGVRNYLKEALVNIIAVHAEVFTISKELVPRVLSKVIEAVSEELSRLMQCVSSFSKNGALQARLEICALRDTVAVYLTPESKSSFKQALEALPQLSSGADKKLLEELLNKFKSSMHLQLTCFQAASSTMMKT
# UniProt Q13541: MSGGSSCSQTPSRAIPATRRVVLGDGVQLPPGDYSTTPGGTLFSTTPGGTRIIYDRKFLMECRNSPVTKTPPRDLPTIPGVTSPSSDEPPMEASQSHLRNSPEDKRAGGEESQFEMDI
# UniProt P19447: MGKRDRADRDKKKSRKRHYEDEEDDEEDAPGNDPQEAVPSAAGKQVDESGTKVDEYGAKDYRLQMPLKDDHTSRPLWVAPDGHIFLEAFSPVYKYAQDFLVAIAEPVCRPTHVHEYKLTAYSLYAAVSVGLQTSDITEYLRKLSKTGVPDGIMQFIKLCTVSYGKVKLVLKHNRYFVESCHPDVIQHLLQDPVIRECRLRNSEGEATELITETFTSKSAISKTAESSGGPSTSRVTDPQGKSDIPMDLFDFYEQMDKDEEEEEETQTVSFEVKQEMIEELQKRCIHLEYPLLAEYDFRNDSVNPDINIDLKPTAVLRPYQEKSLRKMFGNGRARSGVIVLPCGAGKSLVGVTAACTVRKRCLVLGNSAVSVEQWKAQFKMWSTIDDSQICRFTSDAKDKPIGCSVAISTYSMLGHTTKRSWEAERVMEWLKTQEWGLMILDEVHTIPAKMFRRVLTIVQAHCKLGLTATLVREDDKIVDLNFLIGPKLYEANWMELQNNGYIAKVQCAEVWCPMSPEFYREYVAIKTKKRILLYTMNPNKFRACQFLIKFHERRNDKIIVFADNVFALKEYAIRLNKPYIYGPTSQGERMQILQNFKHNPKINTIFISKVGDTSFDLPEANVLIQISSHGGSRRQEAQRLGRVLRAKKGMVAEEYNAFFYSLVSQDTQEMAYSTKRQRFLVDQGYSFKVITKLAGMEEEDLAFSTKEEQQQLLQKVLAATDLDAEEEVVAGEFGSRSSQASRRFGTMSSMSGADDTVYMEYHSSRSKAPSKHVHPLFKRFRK
# UniProt Q9Y421: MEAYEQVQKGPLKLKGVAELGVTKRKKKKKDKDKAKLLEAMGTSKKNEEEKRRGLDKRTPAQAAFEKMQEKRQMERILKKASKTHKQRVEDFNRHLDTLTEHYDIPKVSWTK
# UniProt P63241: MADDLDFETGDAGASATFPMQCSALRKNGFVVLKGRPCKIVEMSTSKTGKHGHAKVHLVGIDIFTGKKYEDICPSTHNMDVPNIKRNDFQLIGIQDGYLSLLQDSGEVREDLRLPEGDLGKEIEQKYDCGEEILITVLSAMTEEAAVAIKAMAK
# UniProt P78344: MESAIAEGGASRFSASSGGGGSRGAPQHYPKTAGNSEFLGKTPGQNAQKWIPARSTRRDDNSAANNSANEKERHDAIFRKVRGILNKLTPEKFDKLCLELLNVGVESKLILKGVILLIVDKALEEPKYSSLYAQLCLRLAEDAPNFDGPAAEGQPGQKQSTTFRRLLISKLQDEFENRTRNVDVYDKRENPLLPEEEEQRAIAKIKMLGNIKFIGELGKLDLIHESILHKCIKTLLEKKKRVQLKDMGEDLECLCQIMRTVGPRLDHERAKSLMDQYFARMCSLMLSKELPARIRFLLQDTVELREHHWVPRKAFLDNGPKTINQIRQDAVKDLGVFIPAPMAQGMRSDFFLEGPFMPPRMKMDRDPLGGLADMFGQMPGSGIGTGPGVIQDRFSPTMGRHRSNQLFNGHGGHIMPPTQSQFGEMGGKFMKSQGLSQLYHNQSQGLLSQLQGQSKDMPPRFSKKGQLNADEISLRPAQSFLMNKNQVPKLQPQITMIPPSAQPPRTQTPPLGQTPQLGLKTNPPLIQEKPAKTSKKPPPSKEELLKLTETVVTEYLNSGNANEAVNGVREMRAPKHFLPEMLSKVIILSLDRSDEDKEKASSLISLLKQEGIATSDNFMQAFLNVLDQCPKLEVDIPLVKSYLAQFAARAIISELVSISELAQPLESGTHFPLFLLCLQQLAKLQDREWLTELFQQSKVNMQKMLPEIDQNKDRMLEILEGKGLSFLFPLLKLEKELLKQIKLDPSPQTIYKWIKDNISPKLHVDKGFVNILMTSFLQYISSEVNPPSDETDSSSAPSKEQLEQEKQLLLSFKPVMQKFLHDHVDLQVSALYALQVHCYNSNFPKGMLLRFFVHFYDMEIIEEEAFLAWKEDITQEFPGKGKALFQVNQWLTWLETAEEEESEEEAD
# UniProt Q14919: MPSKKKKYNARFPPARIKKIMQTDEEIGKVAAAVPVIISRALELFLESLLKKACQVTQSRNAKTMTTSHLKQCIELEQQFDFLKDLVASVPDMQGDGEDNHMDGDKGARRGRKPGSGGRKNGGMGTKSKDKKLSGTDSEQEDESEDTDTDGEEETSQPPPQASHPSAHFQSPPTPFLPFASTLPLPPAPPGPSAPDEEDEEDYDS
# UniProt Q9H410: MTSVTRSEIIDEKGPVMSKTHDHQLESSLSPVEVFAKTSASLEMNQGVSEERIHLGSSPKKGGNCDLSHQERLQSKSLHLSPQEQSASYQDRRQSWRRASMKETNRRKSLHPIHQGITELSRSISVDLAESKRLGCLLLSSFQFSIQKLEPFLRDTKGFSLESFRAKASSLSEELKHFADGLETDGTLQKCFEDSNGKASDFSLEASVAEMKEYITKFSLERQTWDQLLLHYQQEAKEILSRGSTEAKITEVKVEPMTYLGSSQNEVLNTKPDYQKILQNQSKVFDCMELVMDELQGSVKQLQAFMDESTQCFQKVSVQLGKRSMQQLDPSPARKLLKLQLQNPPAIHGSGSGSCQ
# UniProt O43768: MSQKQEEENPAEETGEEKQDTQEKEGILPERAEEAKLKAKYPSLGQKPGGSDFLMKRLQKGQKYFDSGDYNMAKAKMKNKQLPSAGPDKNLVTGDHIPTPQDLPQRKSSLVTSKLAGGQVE
# UniProt Q92611: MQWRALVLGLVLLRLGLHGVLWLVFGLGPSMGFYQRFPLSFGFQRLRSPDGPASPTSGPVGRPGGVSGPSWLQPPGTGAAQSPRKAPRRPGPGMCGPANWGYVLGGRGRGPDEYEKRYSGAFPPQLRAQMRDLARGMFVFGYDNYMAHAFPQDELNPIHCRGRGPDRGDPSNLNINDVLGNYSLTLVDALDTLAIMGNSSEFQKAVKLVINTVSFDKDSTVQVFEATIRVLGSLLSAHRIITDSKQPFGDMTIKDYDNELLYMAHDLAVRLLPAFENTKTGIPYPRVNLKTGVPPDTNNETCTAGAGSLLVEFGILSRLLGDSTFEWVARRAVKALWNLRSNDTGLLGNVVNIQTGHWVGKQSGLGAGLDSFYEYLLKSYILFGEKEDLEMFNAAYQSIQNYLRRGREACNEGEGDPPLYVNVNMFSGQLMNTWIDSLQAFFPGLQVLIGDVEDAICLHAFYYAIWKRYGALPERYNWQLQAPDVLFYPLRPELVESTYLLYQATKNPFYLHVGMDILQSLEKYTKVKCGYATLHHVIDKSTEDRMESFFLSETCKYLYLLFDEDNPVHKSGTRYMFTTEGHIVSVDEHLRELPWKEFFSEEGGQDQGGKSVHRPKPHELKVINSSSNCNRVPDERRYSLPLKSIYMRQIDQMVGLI
# UniProt Q15910, whole entry, looked up: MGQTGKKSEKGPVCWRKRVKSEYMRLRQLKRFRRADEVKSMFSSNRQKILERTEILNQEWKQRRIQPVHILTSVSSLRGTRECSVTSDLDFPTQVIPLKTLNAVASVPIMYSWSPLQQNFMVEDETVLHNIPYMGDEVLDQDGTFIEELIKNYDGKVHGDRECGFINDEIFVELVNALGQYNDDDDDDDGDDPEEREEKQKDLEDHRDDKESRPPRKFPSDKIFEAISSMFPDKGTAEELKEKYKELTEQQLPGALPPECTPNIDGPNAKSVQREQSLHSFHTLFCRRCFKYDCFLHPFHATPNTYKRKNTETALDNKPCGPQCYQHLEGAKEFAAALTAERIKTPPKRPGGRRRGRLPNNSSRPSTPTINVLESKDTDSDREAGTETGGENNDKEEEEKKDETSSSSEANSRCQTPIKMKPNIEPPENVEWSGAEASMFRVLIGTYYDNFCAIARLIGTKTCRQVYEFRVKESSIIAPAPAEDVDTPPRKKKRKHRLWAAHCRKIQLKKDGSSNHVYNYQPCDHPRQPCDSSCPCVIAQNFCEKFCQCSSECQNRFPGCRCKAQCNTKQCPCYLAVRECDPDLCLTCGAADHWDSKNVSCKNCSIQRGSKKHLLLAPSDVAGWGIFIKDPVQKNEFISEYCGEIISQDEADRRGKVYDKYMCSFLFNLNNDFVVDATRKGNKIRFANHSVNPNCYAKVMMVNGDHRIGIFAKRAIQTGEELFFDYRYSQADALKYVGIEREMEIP
# The list shows a part of the results.
# Compound: COc1ccc(Cn2ccc3cc(C)c(C(=O)NO)cc32)cc1
# Experiment: dose-dependent thermal stabilisation call (2D-TPP, DLPTP, 10% FDR) (binary (1 = stabilised)); higher = stabilised by the compound
# Details: system: HL-60 intact cells; concentration range 0.04-10 µM
# Description: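 2D thermal proteome profiling in intact HL-60 cells treated with BRD-3811 (0, 0.04, 0.29, 2, 10 uM) for 90 min at 37 C, then heated 3 min at one of 12 temperatures (42-63.9 C). Soluble protein was quantified by TMT10 MS. The value is the DLPTP call of the paper: dose-dependent thermal stabilisation over all temperatures at 10% FDR (F-test of a dose-response against a flat model); one experiment, one call per tested protein.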
row,Target,dose-dependent thermal stabilisation call
1,EFNB1 (UniProt P98172),inactive: 0
2,ENO1 (UniProt P06733),inactive: 0
3,ENOSF1 (UniProt Q7L5Y1),inactive: 0
4,EPM2AIP1 (UniProt Q7L775),inactive: 0
5,EPRS (UniProt P07814),inactive: 0
6,EIF3H (UniProt O15372),inactive: 0
7,EXOC2 (UniProt Q96KP1),inactive: 0
8,EIF2S1 (UniProt P05198),inactive: 0
9,EYA3 (UniProt Q99504),inactive: 0
10,EML3 (UniProt Q32P44),inactive: 0
11,EIF4EBP1 (UniProt Q13541),inactive: 0
12,ENO3 (UniProt P13929),inactive: 0
13,ESD (UniProt P10768),inactive: 0
14,EXOSC2 (UniProt Q13868),inactive: 0
15,EXOSC5 (UniProt Q9NQT4),inactive: 0
16,ERCC3 (UniProt P19447),inactive: 0
17,ELMOD2 (UniProt Q8IZ81),inactive: 0
18,FAM32A (UniProt Q9Y421),inactive: 0

row,Target,dose-dependent thermal stabilisation call
1,EIF5A (UniProt P63241),inactive: 0
2,EIF4G2 (UniProt P78344),inactive: 0
3,ERCC6,inactive: 0
4,EIF3D (UniProt O15371),inactive: 0
5,ERCC5 (UniProt P28715),inactive: 0
6,DRAP1 (UniProt Q14919),inactive: 0
7,DSCR3 (UniProt O14972),inactive: 0
8,EDC3 (UniProt Q96F86),inactive: 0
9,DSN1 (UniProt Q9H410),inactive: 0
10,FAM177A1 (UniProt Q8N128),inactive: 0
11,ENSA (UniProt O43768),inactive: 0
12,EXOC6 (UniProt Q8TAG9),inactive: 0
13,EIF3I (UniProt Q13347),inactive: 0
14,ERCC2 (UniProt P18074),inactive: 0
15,EDEM1 (UniProt Q92611),inactive: 0
16,EHBP1L1 (UniProt Q8N3D4),inactive: 0
17,EZH2 (UniProt Q15910),inactive: 0
18,ERC1 (UniProt Q8IUD2),inactive: 0
